Laboratory results as given in the supplement of paper PMC3334620.
In all, about 33,000 sequences were measured (“E-score (-0.5 to 0.5)”: median about -0.015, highest 2% from about 0.3 on). The list shows a part of the results.

Target: T1, Abf1 (UniProt P14164)
T1 sequence: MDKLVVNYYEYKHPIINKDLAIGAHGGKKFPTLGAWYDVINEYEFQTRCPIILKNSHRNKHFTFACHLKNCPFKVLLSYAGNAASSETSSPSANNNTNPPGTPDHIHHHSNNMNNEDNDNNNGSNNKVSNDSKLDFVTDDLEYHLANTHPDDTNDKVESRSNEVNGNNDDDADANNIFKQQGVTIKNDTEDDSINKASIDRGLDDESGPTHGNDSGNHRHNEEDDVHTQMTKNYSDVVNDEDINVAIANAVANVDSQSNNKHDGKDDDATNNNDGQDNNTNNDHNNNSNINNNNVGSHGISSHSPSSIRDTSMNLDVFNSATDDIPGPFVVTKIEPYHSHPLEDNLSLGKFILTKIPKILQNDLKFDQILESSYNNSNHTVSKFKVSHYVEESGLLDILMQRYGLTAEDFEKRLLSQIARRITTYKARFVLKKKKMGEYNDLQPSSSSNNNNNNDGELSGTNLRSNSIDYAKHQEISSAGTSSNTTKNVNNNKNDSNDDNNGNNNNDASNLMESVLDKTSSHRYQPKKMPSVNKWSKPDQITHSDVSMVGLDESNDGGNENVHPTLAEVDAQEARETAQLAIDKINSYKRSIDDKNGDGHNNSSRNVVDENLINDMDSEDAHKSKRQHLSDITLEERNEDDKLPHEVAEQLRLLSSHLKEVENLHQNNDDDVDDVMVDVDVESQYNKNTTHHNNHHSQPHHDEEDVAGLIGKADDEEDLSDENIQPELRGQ
Assay: PBM E-score (8-mer binding enrichment) (E-score (-0.5 to 0.5)); higher = stronger / more preferred TF binding
Conditions: protein concentration: 200 nM; construct: GST-full length
Procedure, shortened: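 Yeast transcription factors, full-length or as DNA-binding domains, were expressed with a GST tag using PURExpress in vitro transcription/translation. At about 100-200 nM they were applied to universal all-10-mer Agilent arrays, double-stranded by primer extension on fresh or once-stripped slides. Fluorescent anti-GST detected bound protein, and masliner normalised the scans. E-scores for ungapped eight-base words, pooled with reverse complements, came from the Universal PBM Analysis Suite.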

Sequence | PBM E-score
CCTGCCAA | -0.288
AGAGGACG | -0.0391
CTACTTGC | 0.0196
CTATACAC | -0.0734
CAAAGGAC | -0.244
ATTTTTAA | 0.162
CGATGGTA | -0.0203
AGTCAAGC | -0.221
ACGCGCCA | -0.154
GCAACACC | -0.109
GACGATGC | 0.231
AATAACGG | 0.126
CCACCCAA | -0.252
AGCTACGG | 0.0966
TCGCGAGA | 0.198
GCCGTTAC | 0.00322
CTCCTGTC | 0.00524
ATAAGGAG | -0.0372
GGTGGCAC | -0.0175
CTCCATCA | 0.0333
CGAAACCG | -0.0352
GCCACAGA | -0.124
CAACTATC | -0.0598
AATGGGCA | -0.086
CTGTGCAC | 0.0718

A second format for part of the listing above.
Sequence,PBM E-score
AGAGGACG,-0.0391
CTACTTGC,0.0196
CTATACAC,-0.0734
CAAAGGAC,-0.244
ATTTTTAA,0.162

Next part:

Sequence | PBM E-score
CAACAAGG | -0.0973
AAAAATGA | 0.229
CTACGATA | 0.173
GTGGCGCA | -0.108
AGACTGTA | 0.00213
ATCACGTC | 0.336
AATGAAAA | 0.0544
ACTGTCGG | -0.0555
AATGGTGG | -0.323
TCCTGAAA | 0.0559
CCGTCCAC | 0.149
AGGTTATC | 0.0463
AGATCGGG | -0.215
ATAAAAGA | -0.0436
GCTCTAAA | -0.169
CCTATTCC | -0.139
GCGTCGGA | -0.111
AGGATCCG | -0.0941
ATGTCAAC | 0.105
TAAACACA | -0.105
AGGTTCGA | 0.186
AATGATTG | 0.152
ACAAAGCC | 0.093
CGGTTTAG | -0.00596
AGCAGAAT | 0.141

Sequence | PBM E-score
TCCAGCAA | -0.0696
AGTCGGAA | -0.166
GGGTGACA | 0.257
GACGGACC | 0.153
AGGGAACT | -0.244
GCTATGGA | -0.106
ATGAATAA | 0.012
CTCCTTCC | -0.389
ACGCAGAT | 0.0745
CAAGGGCG | -0.109
ATCTGGGA | -0.0723
CGCGCATC | -0.126
ACGCTTGG | -0.0437
CTGCTTGA | -0.184
GAATCAGA | -0.122
AGATAGAC | 0.00693
ATATATGC | 0.0515
CAAGATTC | -0.0169
ACAGTATC | 0.0404
AGCTAACT | -0.0886
ATATCATC | 0.408
CTAAACCA | -0.106
ACTGCGCT | -0.222
TCGTACCA | 0.322
AATGTGAA | 0.0771

Sequence | PBM E-score
ACGGATTA | 0.175
CCAGTCTC | -0.222
AACCTCAC | -0.00261
CCACCACG | -0.0143
GCCAAGCC | -0.163
ATGTTCCA | 0.0963
AGGCTTCA | -0.183
ACTCTGGA | 0.0602
CCTAGAAG | -0.0953
CTGAATTC | -0.101
AGATAGTG | 0.178
GCTACCAA | -0.00544
GCCGCGCC | -0.214
ACTGGAGG | -0.167
GCCTCGAA | 0.00063
TAGGCCTA | 0.0048
AAAGCCTG | -0.296
GCGTTGCA | -0.132
ATAGGGAC | -0.145
GGCAAGAA | -0.0781
GGGGCACA | -0.292
GAGCAGGA | 0.1
GATACGCA | 0.128
ACCCTGAA | -0.11
AGCAACGA | -0.00891

Sequence | PBM E-score
ATTCATGC | -0.0459
GTTCGCTA | 0.0655
GATCAACC | 0.005
GTTCTTTA | -0.00903
TAAGAACA | 0.165
ACACAGTG | 0.0503
AAGGGTGG | -0.158
ATTGAGGA | -0.0212
ACGTATGC | 0.014
TCTAATAA | 0.112
ATATATAG | 0.142
AGCCACCA | -0.14
TCGTTTAA | 0.341
AGAATTTA | 0.11
CTGGGATA | -0.0232
AATGATGA | 0.282
AAGCATGA | 0.141
CCAGGGGA | -0.302
CTTACCGA | 0.00077
TCGCGACA | 0.217
TCGCTCAA | 0.0924
GGCGATAC | 0.0593
TCGCAAAA | -0.0599
CATTGGAA | 0.0279
ACCATCAG | -0.222

Sequence | PBM E-score
CCCTGAGC | -0.143
ACTTCACC | 0.115
AGCTTATA | -0.188
ACTATAGG | 0.0727
CAAAGTAG | -0.0106
AATCTCCA | -0.0618
CGGGGGAC | -0.162
CCTAAGTC | -0.062
AGTGAAAT | -0.0399
ACGGTGGA | 0.145
CCTGAACA | -0.0952
GAGCCCAC | -0.0917
AGGCAGAC | -0.143
GACTTCTA | -0.0781
ACTCGACT | -0.138
GGGCGTAA | -0.136
CTGGCCTC | -0.288
CCTCTAAG | -0.0807
GTGATTGA | 0.16
CGCAAACC | -0.124
GGTTGAAA | -0.00421
AAGTGTAC | -0.183
AACTTCAG | -0.105
AGGAGTTC | -0.265
ACCTGCTG | -0.00869

Seven consecutive entries from above:
Sequence | PBM E-score
ACTATAGG | 0.0727
CAAAGTAG | -0.0106
AATCTCCA | -0.0618
CGGGGGAC | -0.162
CCTAAGTC | -0.062
AGTGAAAT | -0.0399
ACGGTGGA | 0.145

Remaining list, next part:

Sequence | PBM E-score
AAGGAAGA | -0.195
AAACCCGA | 0.0153
AGGCATGC | -0.0181
CCCATGTA | -0.00446
CGCGAGAC | 0.154
TATGCCCA | -0.111
AAATGCAC | -0.0914
ATCAAGTG | -0.0333
TAGTGTAA | 0.157
GGCCTCTA | -0.0781
GAGATAGA | -0.0247
TCCATGGA | 0.0226
CCATATTA | 0.167
CTACTGAA | -0.0599
TACTTCAA | 0.0378
CGGGCAAG | -0.003
GTCGGGAA | 0.0638
CCCCCGTA | -0.0535
CCTACCTC | -0.177
ATGACCCA | -0.00947
CCCATAGC | -0.0876
CTATATTA | 0.182
